Results are given in words; binding and its absence hold for the method and conditions named. Binding seen in cells or lysates may run through a third protein. Some entries that bind do so weakly or less than the wild type. Sequences can lack the tags named with a protein.
What was measured:
[1] = target: FLAG-tagged human CDC7 kinase, wild type (pCdc7FLAG-tagged, in pCMV-Tag2) (human) (UniProt O00311); assay: co-immunoprecipitation and western blot (legend of FIG. 2)
[2] = target: endogenous CDC7 of human 293 cells (human) (UniProt O00311); assay: co-immunoprecipitation with anti-HA from transfected 293 cells, western blot with anti-CDC7
[3] = target: FLAG-tagged human CDC7 kinase, kinase negative form K90R (pCdc7FLAG K90R) (human) (UniProt O00311); assay: reciprocal co-immunoprecipitation (anti-HA and anti-FLAG) from transfected 293 cells, western blot
[4] = target: FLAG-tagged human CDC7 kinase, wild type (pCdc7FLAG-tagged, in pCMV-Tag2) (human) (UniProt O00311); assay: as above

By UniProt entry, the sequences of proteins in these tests, tags left out. Where a name states a change or a piece, a line headed by the entry shows the natural chain unless it says otherwise.
UniProt O00311: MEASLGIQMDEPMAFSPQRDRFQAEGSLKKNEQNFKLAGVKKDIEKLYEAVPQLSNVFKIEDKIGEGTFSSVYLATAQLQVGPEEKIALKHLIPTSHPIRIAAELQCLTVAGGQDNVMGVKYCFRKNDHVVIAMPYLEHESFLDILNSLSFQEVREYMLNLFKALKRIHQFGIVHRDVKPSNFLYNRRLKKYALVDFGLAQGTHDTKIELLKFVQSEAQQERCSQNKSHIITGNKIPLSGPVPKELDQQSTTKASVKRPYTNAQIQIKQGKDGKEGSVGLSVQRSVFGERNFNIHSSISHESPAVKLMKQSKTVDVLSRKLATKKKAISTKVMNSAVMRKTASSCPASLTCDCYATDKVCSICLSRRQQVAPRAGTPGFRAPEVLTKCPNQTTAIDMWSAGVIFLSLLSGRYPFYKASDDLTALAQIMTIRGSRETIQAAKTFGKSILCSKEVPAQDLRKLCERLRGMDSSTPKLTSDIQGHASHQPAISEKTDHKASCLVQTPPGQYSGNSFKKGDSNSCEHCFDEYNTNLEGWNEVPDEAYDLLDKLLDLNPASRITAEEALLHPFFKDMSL

Measured: binding

B1: HA-DRF1 (DRF1 with N-terminal HA epitope, expressed from pCDNAHAdrf1) (protein, not shown: small tags and cut ends)
chain: SEPGKGDDCLELESSMAESRLRAPDLGVSRCLGKCQKNSPGARKHPFSGKSFYLDLPAGKNLQFLTGAIQQLGGVIEGFLSKEVSYIVSSRREVKAESSGKSHRGCPSPSPSEVRVETSAMVDPKGSHPRPSRKPVDSVPLSRGKELLQKAIRNQGSISGGGSGGSSSLLTNARSWGVRILHVDEMMMHVQQLSLASLCVKKQQPKKPEGTCPAAESRTRKVARLKAPFLKIEDESRKFRPFHHQFKSFPEISFLGPKDASPFEAPTTLGSMHHTRESKDGEPSPRSAAHTMPRRKKGYCECCQEAFEELHVHLQSAQHRSFALEAHLYAEVDRIIAQLSHSFADIPFQAGLPRWSGSPASDCDPLCPETLHPHQPSHPRAASPRIRKEDSCQASVTQGRAAGQQRWTESLDGVMGPPASHTCVSATTLLPALPKGSREQGCLCPCPASFTQSHLVTSLALLPGEWSPAEDMPLHPSQENSFAPADIPVKGPLLFPEARPWLMSARCWVRPFPFVTWGCLIPHDTTPLHEEVSPCPCLRLGYLYLLLTQSLWCRVRVPSLSTAGPIPRTSHPCTLAFPSYLNDHDLGHLCQAKPQGWNTPQPFLHCGFLAVDSG
binds: all assays above

From patent US20040102611A1
